The target of test [1] is T1, Bladder cancer-associated protein (BLCAP), wild type, 3×FLAG-tagged (human) (UniProt P62952).
T1 sequence: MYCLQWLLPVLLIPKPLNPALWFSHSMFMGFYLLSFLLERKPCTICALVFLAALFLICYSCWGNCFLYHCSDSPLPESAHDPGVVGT
The test can be described thus: co-IP; 293T cells co-transfected with 3×FLAG-BLCAP and HA-STAT3, lysed 24 h later; lysate immunoprecipitated with anti-FLAG antibody plus protein G magnetic beads, 20 minutes at room temperature, six washes; blot with anti-HA; normal mouse IgG as control.

Sequences of proteins named here, by UniProt entry; tags and fusion partners are left off.
UniProt P40763: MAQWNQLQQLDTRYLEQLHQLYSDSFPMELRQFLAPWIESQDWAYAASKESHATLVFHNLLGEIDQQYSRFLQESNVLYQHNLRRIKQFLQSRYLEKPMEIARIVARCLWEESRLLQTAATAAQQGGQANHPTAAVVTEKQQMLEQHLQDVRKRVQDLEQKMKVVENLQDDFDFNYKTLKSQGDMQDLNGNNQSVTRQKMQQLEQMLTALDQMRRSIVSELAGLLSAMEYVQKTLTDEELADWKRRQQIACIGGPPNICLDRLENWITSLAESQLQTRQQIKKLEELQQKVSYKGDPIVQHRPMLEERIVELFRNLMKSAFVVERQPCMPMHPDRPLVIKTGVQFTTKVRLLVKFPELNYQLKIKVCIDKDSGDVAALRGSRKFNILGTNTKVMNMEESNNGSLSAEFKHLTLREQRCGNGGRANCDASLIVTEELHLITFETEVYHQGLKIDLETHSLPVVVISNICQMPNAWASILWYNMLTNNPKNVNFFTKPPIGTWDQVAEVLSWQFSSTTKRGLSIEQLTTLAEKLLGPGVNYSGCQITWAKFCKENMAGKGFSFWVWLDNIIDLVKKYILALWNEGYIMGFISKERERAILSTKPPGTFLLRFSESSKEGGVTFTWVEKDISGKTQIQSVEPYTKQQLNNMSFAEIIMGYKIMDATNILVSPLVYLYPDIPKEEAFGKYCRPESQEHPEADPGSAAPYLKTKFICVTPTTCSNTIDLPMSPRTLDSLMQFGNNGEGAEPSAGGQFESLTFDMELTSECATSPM

Test [2] deals with T1, Bladder cancer-associated protein (BLCAP), wild type, 3×FLAG-tagged (human). The test can be described thus: co-IP; 293T or HeLa cells transfected with 3×FLAG-tagged BLCAP (wild type or edited), lysed 24 h later; lysate immunoprecipitated with anti-FLAG antibody plus protein G magnetic beads, 20 minutes at room temperature, six washes; blot for endogenous STAT3; normal mouse IgG as control.

For test [3], the target named is T2, Edited BLCAP with A>G at site 5 (CCLQ-FLAG) (human) (UniProt P62952).
T2 sequence: T1 sequence with Y2C
Described as above.

Positions count from the first letter of the chain named. These are yes or no findings as the source states them, for the method shown. Binding seen in cells or lysates may run through a third protein. Some binding calls cover weakened binding; strength is not graded here. Tags and fused reporters may be left off the sequences shown.

As for “Signal transducer and activator of transcription 3 (STAT3), HA-tagged (from UniProt P40763 1-770)”, the binding entry in test [1] is recorded as “binds”. Turning to “Signal transducer and activator of transcription 3 (STAT3), endogenous (from UniProt P40763 1-770)”, the binding entry in test [2] and in test [3] was “binds” in each case.

(Values after publication PMC5503622.)
